PubChem BioAssay AID743454 | Peter MacCallum Cancer Centre | 2014

Aim: 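Search for knock-downs that restore vorinostat killing in resistant colon cancer cells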 (primary screen)
Cells: human HCT116-VR colon cancer cells, selected for vorinostat resistance
Knock-down reagent: siRNA pool against human genes, 40 nM siRNA pool
Timing: vorinostat for 24 h, read-out about 72 h after transfection
Challenge: vorinostat at 2.5 µM final
Read-out: 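Cell viability by CellTiter-Fluor and caspase 3/7 activity by luminescence, each scaled to mock wells per plate, duplicates averaged, then robust z-scored over all plates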
Direction: viability robust z-score: higher = more viable cells than screen typical; caspase robust z-score: higher = more caspase 3/7 activity than screen typical
Rule for the call: 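Hits are knock-downs in viability class RV1/RV2 or caspase class CA1/CA2, excluding ones that killed cells in the no-drug cell-count arm; hits then retested with single siRNAs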
The whole screen tested about 18,000 reagents; shown is a part drawn at random. 450 of them (2.5%) were called active. 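Single biological run; no consistent viability z cut-off exists, so the class columns, not z-scores, define the calls.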 Reagents against one gene are numbered here.

target | pool no. | viability hit class | caspase hit class | viability robust z-score | caspase robust z-score | Outcome
CCDC102B (coiled-coil domain containing 102B) | 1 | no change | no change | -0.55 | -1.06 | inactive
ACSS1 (acyl-CoA synthetase short chain family member 1) | 1 | no change | no change | -0.85 | -0.99 | inactive
C20orf144 (chromosome 20 open reading frame 144) | 1 | no change | no change | 0.56 | 1.88 | inactive
OLA1 (Obg like ATPase 1) | 1 | no change | no change | 1.01 | 0.18 | inactive
GOPC (golgi associated PDZ and coiled-coil motif containing) | 1 | no change | no change | -0.2 | -1.08 | inactive
XAB2 (XPA binding protein 2) | 1 | no change | no change | -2.11 | -0.5 | inactive
ANXA1 (annexin A1) | 1 | no change | no change | 0.62 | -0.3 | inactive
HEMGN (hemogen) | 1 | no change | no change | -1.61 | -1.06 | inactive
GRHL1 (grainyhead like transcription factor 1) | 1 | no change | no change | 0.26 | 0.38 | inactive
NKTR (natural killer cell triggering receptor) | 1 | no change | no change | 0.78 | -0.82 | inactive
SH3TC1 (SH3 domain and tetratricopeptide repeats 1) | 1 | no change | no change | 0.24 | -0.93 | inactive
RNF216 (ring finger protein 216) | 1 | no change | CA1 (caspase activation) | -1.71 | 7.5 | active
BBX (BBX high mobility group box domain containing) | 1 | no change | no change | -0.86 | -0.44 | inactive
IFRD1 (interferon related developmental regulator 1) | 1 | no change | no change | 0.89 | -0.97 | inactive
BMAL1 (basic helix-loop-helix ARNT like 1) | 1 | no change | no change | 0.75 | 0.22 | inactive
ZNF143 (zinc finger protein 143) | 1 | no change | no change | 0.72 | -0.42 | inactive
SPACA4 (sperm acrosome associated 4) | 1 | no change | no change | -0.62 | -0.23 | inactive
KRT2 (keratin 2) | 1 | no change | no change | -1.96 | -0.39 | inactive
N4BP1 (NEDD4 binding protein 1) | 1 | no change | no change | 1.88 | -0.04 | inactive
LIPT1 (lipoyltransferase 1) | 1 | no change | no change | -1.49 | 1.48 | inactive
NSMCE1 (NSE1 component of SMC5/6 complex) | 1 | no change | no change | -0.74 | 2.33 | inactive
ZNF792 (zinc finger protein 792) | 1 | no change | no change | 0.44 | -0.26 | inactive
PPP1R10 (protein phosphatase 1 regulatory subunit 10) | 1 | no change | no change | -1.44 | 3.59 | inactive
CORO6 (coronin 6) | 1 | no change | no change | -0.01 | 0.42 | inactive
CDK15 (cyclin dependent kinase 15) | 1 | no change | no change | 0.57 | -0.62 | inactive
KCNMB2 | 1 | no change | no change | -0.44 | -0.88 | inactive
ETV3L (ETS variant transcription factor 3 like) | 1 | no change | no change | -1.36 | 5 | inactive
KLF12 (KLF transcription factor 12) | 1 | no change | no change | 1.95 | -0.5 | inactive
PFN1 (profilin 1) | 1 | no change | no change | 0.04 | 1.35 | inactive
OR3A4P (olfactory receptor family 3 subfamily A member 4 pseudogene) | 1 | no change | no change | 0.29 | 2.29 | inactive
GCHFR (GTP cyclohydrolase I feedback regulator) | 1 | no change | no change | -1.43 | 1.36 | inactive
CHRM1 (cholinergic receptor muscarinic 1) | 1 | no change | no change | 1.45 | 0.17 | inactive
NUBP1 (NUBP iron-sulfur cluster assembly factor 1, cytosolic) | 1 | no change | no change | 0.44 | -0.06 | inactive
CPLANE1 (ciliogenesis and planar polarity effector complex subunit 1) | 1 | no change | no change | -1.2 | -1.04 | inactive
ZCCHC9 (zinc finger CCHC-type containing 9) | 1 | no change | no change | 0.5 | 0.58 | inactive
SH3D19 (SH3 domain containing 19) | 1 | no change | no change | 0.49 | -0.44 | inactive
MFSD2B (MFSD2 lysolipid transporter B, sphingolipid) | 1 | no change | no change | -0.75 | -1.21 | inactive
WNT3 (Wnt family member 3) | 1 | no change | no change | -0.26 | 0.62 | inactive
RNF213 (ring finger protein 213) | 1 | no change | no change | -1.27 | -1.03 | inactive
RNF213 (ring finger protein 213) | 2 | no change | no change | 0.82 | -0.25 | inactive
LTBR (lymphotoxin beta receptor) | 1 | no change | no change | -1.08 | 0.35 | inactive
KRT73 (keratin 73) | 1 | no change | no change | 0.27 | -0.61 | inactive
WDR77 (WD repeat domain 77) | 1 | no change | no change | 1.95 | -0.58 | inactive
KRTAP5-11 (keratin associated protein 5-11) | 1 | no change | no change | 0 | -0.81 | inactive
KRTAP20-2 (keratin associated protein 20-2) | 1 | no change | no change | -1.02 | 2.24 | inactive
ACAA2 (acetyl-CoA acyltransferase 2) | 1 | no change | no change | 1.26 | 0.52 | inactive
DNAI4 (dynein axonemal intermediate chain 4) | 1 | no change | CA2 (caspase activation) | -0.1 | 5.31 | active
LGALS14 (galectin 14) | 1 | no change | no change | 0.26 | -0.36 | inactive

Copied from the listing for reference:
target | pool no. | viability hit class | caspase hit class | viability robust z-score | caspase robust z-score | Outcome
ANXA1 (annexin A1) | 1 | no change | no change | 0.62 | -0.3 | inactive
HEMGN (hemogen) | 1 | no change | no change | -1.61 | -1.06 | inactive
GRHL1 (grainyhead like transcription factor 1) | 1 | no change | no change | 0.26 | 0.38 | inactive
NKTR (natural killer cell triggering receptor) | 1 | no change | no change | 0.78 | -0.82 | inactive

The listing continues.
target | pool no. | viability hit class | caspase hit class | viability robust z-score | caspase robust z-score | Outcome
PTBP2 (polypyrimidine tract binding protein 2) | 1 | no change | no change | -0.12 | 1.04 | inactive
ZNF625 (zinc finger protein 625) | 1 | no change | no change | -0.68 | -0.76 | inactive
ASPG (asparaginase) | 1 | no change | no change | -0.33 | -0.21 | inactive
DTYMK (deoxythymidylate kinase) | 1 | no change | no change | 0.86 | 0.75 | inactive
CIRBP-AS1 (CIRBP antisense RNA 1) | 1 | no change | no change | 0.55 | 0.75 | inactive
RANBP3 (RAN binding protein 3) | 1 | no change | no change | 0.88 | 0.11 | inactive
RGS1 (regulator of G protein signaling 1) | 1 | no change | no change | -1.38 | 1.99 | inactive
ECEL1 (endothelin converting enzyme like 1) | 1 | no change | no change | -0.84 | 0.8 | inactive
SPG7 (SPG7 matrix AAA peptidase subunit, paraplegin) | 1 | no change | no change | -1.37 | 0.72 | inactive
PCSK2 (proprotein convertase subtilisin/kexin type 2) | 1 | no change | no change | -0.42 | -0.57 | inactive
OR11H4 (olfactory receptor family 11 subfamily H member 4) | 1 | no change | no change | -0.23 | 0.76 | inactive
GNL3L (G protein nucleolar 3 like) | 1 | no change | no change | 0.32 | 2.82 | inactive
VN1R1 (vomeronasal 1 receptor 1) | 1 | no change | no change | -1.38 | 3.5 | inactive
FGF5 (fibroblast growth factor 5) | 1 | no change | no change | 0.78 | -0.74 | inactive
RTKN2 (rhotekin 2) | 1 | no change | no change | 0.49 | -0.46 | inactive
MIP (major intrinsic protein of lens fiber) | 1 | no change | no change | 1.4 | -0.42 | inactive
POLR1F (RNA polymerase I subunit F) | 1 | no change | no change | -2.76 | 0.22 | inactive
USH2A (usherin) | 1 | no change | no change | 0.62 | -1.29 | inactive
GLB1L (galactosidase beta 1 like) | 1 | no change | no change | -0.5 | -0.42 | inactive
KCNQ2 (potassium voltage-gated channel subfamily Q member 2) | 1 | no change | no change | -1.1 | 2.66 | inactive
PCM1 (pericentriolar material 1) | 1 | no change | no change | -0.38 | -0.91 | inactive
SLC10A2 | 1 | no change | no change | -0.28 | 1.03 | inactive
MIXL1 (Mix paired-like homeobox) | 1 | no change | no change | -0.41 | -0.4 | inactive
ARHGAP35 (Rho GTPase activating protein 35) | 1 | no change | no change | 0.47 | -0.52 | inactive
SRF (serum response factor) | 1 | no change | no change | 0.29 | 1.33 | inactive
